Measured values reported in the supplement of paper PMC9015667.
Some of the results follow. Many values rest on one well or one pass, so single values are uncertain.

Key:
Assay in all cases: reduction in cell viability relative to untreated/vehicle; higher = more growth inhibition
Details in all cases: 200 nM; 72 h
M229P = test system: M229P (parental melanoma line)
M229R = test system: M229R (matched melanoma line resistant to BRAF inhibitors)
M238P = test system: M238P (parental melanoma line)
M238R = test system: M238R (matched melanoma line resistant to BRAF inhibitors)
M249P = test system: M249P (parental melanoma line)
M249R = test system: M249R (matched melanoma line resistant to BRAF inhibitors)
UACC62P = test system: UACC62P (parental melanoma line)
UACC62R = test system: UACC62R (matched melanoma line resistant to BRAF inhibitors)

SMILES | reduction in cell viability (M229P) | reduction in cell viability (M229R) | reduction in cell viability (M238P) | reduction in cell viability (M238R) | reduction in cell viability (M249P) | reduction in cell viability (M249R) | reduction in cell viability (UACC62P) | reduction in cell viability (UACC62R)
Nc1nc(F)nc2c1ncn2[C@@H]1O[C@H](COP(=O)(O)O)[C@@H](O)[C@@H]1O [Fludarabine phosphate] | < 0% | < 0% | < 0% | < 0% | < 0% | 0.18% | < 0% | < 0%
CC(=O)N1CCN(c2ccc(OCC3COC(Cn4ccnc4)(c4ccc(Cl)cc4Cl)O3)cc2)CC1 (stereo not given) [Ketoconazole] | < 0% | 0.56% | < 0% | < 0% | < 0% | < 0% | < 0% | < 0%
CCC(CC)CC1(C(=O)Nc2ccccc2SC(=O)C(C)C)CCCCC1 [Dalcetrapib] | < 0% | < 0% | < 0% | < 0% | < 0% | < 0% | < 0% | < 0%
OC[C@H]1O[C@@H](OCCc2ccc(O)cc2)[C@H](O)[C@@H](O)[C@@H]1O [Salidroside] | < 0% | < 0% | < 0% | < 0% | < 0% | < 0% | < 0% | < 0%
COc1ccnc(C[S+]([O-])c2nc3cc(OC(F)F)ccc3[nH]2)c1OC (stereo not given) [Pantoprazole] | < 0% | < 0% | < 0% | < 0% | < 0% | < 0% | < 0% | < 0%
Cc1cc2nc3c(=O)[nH]c(=O)nc-3n(C[C@H](O)[C@H](O)[C@H](O)CO)c2cc1C | < 0% | < 0% | < 0% | < 0% | < 0% | < 0% | < 0% | < 0%
CNC(=O)c1cc(Oc2ccc(NC(=O)Nc3cc(C(C)(C)C)nn3-c3ccc4ncccc4c3)c(F)c2)ccn1 | < 0% | < 0% | 12.5% | < 0% | < 0% | < 0% | 21.1% | < 0%
COc1cc2ncnc(Nc3cc(Br)c(O)c(Br)c3)c2cc1OC | < 0% | < 0% | < 0% | < 0% | < 0% | < 0% | < 0% | < 0%
Cc1ccc(NC(=O)Nc2cc(C(F)(F)F)ccc2F)cc1Nc1ccc2c(c1)NC(=O)/C2=C\c1ccc[nH]1 | < 0% | < 0% | < 0% | < 0% | < 0% | 0.14% | < 0% | < 0%
Cc1cc(-c2ncc(CC(=O)Nc3ccc(-c4cnccn4)cn3)cc2C)ccn1 | < 0% | < 0% | < 0% | < 0% | < 0% | < 0% | < 0% | < 0%
N/C(=N\C(=O)c1nc(Cl)c(N)nc1N)NCc1ccccc1 [Benzamil] | < 0% | < 0% | < 0% | < 0% | < 0% | < 0% | < 0% | < 0%
COc1cc(Nc2ncc(F)c(Nc3ccc4c(n3)N(COP(=O)(O)O)C(=O)C(C)(C)O4)n2)cc(OC)c1OC [Fostamatinib disodium] | < 0% | < 0% | < 0% | < 0% | < 0% | 1.58% | < 0% | < 0%
CNC(=O)c1ccc(N2C(=S)N(c3cnc(C#N)c(C(F)(F)F)c3)C(=O)C23CCC3)cc1F | < 0% | < 0% | < 0% | < 0% | < 0% | < 0% | < 0% | < 0%
CCOC(=O)C1=C[C@]2(CC)CCCN3CCc4c(n1c1ccccc41)[C@@H]32 [Vinpocetine] | 0.6% | < 0% | < 0% | < 0% | < 0% | < 0% | < 0% | < 0%
Nc1nc(Cl)nc2c1ncn2[C@@H]1O[C@H](CO)[C@@H](O)[C@@H]1F [Clofarabine] | 7.83% | 37% | 83.4% | 58.7% | 23.4% | 51.7% | 26.1% | 84.3%
COCCCN1CCC(NC(=O)c2cc(Cl)c(N)c3c2OCC3)CC1 [Prucalopride] | < 0% | < 0% | < 0% | < 0% | < 0% | < 0% | 31.8% | < 0%
CC(=O)N(C)C1(c2ccccc2)CCN(CCC[C@]2(c3ccc(Cl)c(Cl)c3)CCCN(C(=O)c3ccccc3)C2)CC1 [Osanetant] | < 0% | < 0% | < 0% | < 0% | < 0% | < 0% | < 0% | < 0%
COc1cc2c(Nc3ccc(NC(=O)c4ccccc4)cc3)ncnc2cc1OCCCN1CCOCC1 | < 0% | < 0% | 16.1% | < 0% | < 0% | < 0% | < 0% | 33.3%

Among those listed so far, two have a CF3 group:
SMILES | reduction in cell viability (M229P) | reduction in cell viability (M229R) | reduction in cell viability (M238P) | reduction in cell viability (M238R) | reduction in cell viability (M249P) | reduction in cell viability (M249R) | reduction in cell viability (UACC62P) | reduction in cell viability (UACC62R)
Cc1ccc(NC(=O)Nc2cc(C(F)(F)F)ccc2F)cc1Nc1ccc2c(c1)NC(=O)/C2=C\c1ccc[nH]1 | < 0% | < 0% | < 0% | < 0% | < 0% | 0.14% | < 0% | < 0%
CNC(=O)c1ccc(N2C(=S)N(c3cnc(C#N)c(C(F)(F)F)c3)C(=O)C23CCC3)cc1F | < 0% | < 0% | < 0% | < 0% | < 0% | < 0% | < 0% | < 0%

More entries.

SMILES | reduction in cell viability (M229P) | reduction in cell viability (M229R) | reduction in cell viability (M238P) | reduction in cell viability (M238R) | reduction in cell viability (M249P) | reduction in cell viability (M249R) | reduction in cell viability (UACC62P) | reduction in cell viability (UACC62R)
C[C@@H]1C/C=C/C=C/C=C/C=C/[C@H](O[C@@H]2O[C@H](C)[C@@H](O)[C@H](N)[C@@H]2O)C[C@@H]2O[C@](O)(C[C@@H](O)C[C@H]3O[C@@H]3/C=C/C(=O)O1)C[C@H](O)[C@H]2C(=O)O | < 0% | < 0% | < 0% | < 0% | < 0% | < 0% | < 0% | < 0%
CN(c1nccc(=O)[nH]1)C1CCN(c2nc3ccccc3n2Cc2ccc(F)cc2)CC1 [Mizolastine] | < 0% | < 0% | < 0% | < 0% | < 0% | < 0% | < 0% | < 0%
COc1cc(C(=O)NS(=O)(=O)c2ccccc2C)ccc1Cc1cn(C)c2ccc(NC(=O)OC3CCCC3)cc12 [Zafirlukast] | < 0% | < 0% | < 0% | < 0% | < 0% | < 0% | < 0% | < 0%
O=C1Nc2ccc(Cl)cc2[C@@](C#CC2CC2)(C(F)(F)F)O1 [Efavirenz] | < 0% | < 0% | < 0% | < 0% | 0.87% | < 0% | 27.5% | < 0%
C[C@H](Cc1ccc(O)c(O)c1)[C@@H](C)Cc1ccc(O)c(O)c1 [Masoprocol] | < 0% | < 0% | < 0% | < 0% | < 0% | < 0% | < 0% | < 0%
CCCCC(CC)COC(=O)C(C#N)=C(c1ccccc1)c1ccccc1 (stereo not given) [2-Ethylhexyl-2-cyano-3,3-diphenylacrylate] | < 0% | < 0% | < 0% | < 0% | < 0% | 3.71% | < 0% | < 0%
CS(=O)(=O)OCCCCOS(C)(=O)=O [Busulfan] | < 0% | < 0% | < 0% | < 0% | < 0% | < 0% | < 0% | < 0%
CCCCCN(C)CCC(O)(P(=O)(O)O)P(=O)(O)O [Ibandronate sodium hydrate] | < 0% | < 0% | < 0% | < 0% | < 0% | < 0% | < 0% | < 0%
COc1ccc2[nH]c([S+]([O-])Cc3ncc(C)c(OC)c3C)nc2c1 (stereo not given) [Omeprazole] | < 0% | < 0% | < 0% | < 0% | < 0% | < 0% | < 0% | < 0%
CS[C@H]1SC[C@H]2C(=O)N(C)[C@@H](C(C)C)C(=O)OC[C@@H](NC(=O)c3cnc4ccccc4n3)C(=O)N[C@@H](C)C(=O)N(C)[C@@H]1C(=O)N(C)[C@@H](C(C)C)C(=O)OC[C@@H](NC(=O)c1cnc3ccccc3n1)C(=O)N[C@@H](C)C(=O)N2C [Echinomycin] | 81.1% | 78.9% | 86.6% | 71.5% | 90.9% | 91.8% | 78.3% | 82.4%
C[C@@H](O)[C@H]1C(=O)N2C(C(=O)O)=C(S[C@@H]3CN[C@H](CNS(N)(=O)=O)C3)[C@H](C)[C@H]12 [Doripenem] | < 0% | < 0% | < 0% | < 0% | < 0% | < 0% | < 0% | < 0%
Cn1c(=O)n(-c2ccc(C(C)(C)C#N)cc2)c2c3cc(-c4cnc5ccccc5c4)ccc3ncc21 | 38.5% | 30.1% | 45.8% | 30.9% | 53% | 41.7% | 56.4% | 47.6%
CC(C)CNc1ccnc(NCc2csc(-c3ccccc3)n2)n1 | < 0% | < 0% | < 0% | < 0% | < 0% | < 0% | < 0% | < 0%
Cn1c2ccccc2c2c3c(c4c5ccccc5n(CCC#N)c4c21)CNC3=O | < 0% | < 0% | < 0% | < 0% | < 0% | < 0% | < 0% | < 0%
COc1ccc(/C=C\c2cc(OC)c(OC)c(OC)c2)cc1NC(=O)[C@@H](N)CO [Ombrabulin] | 31.4% | 53.1% | 62.4% | 53.4% | 54.3% | 45.5% | 51.3% | 77%
O=C(Nc1ccccc1-c1cn2c(CN3CCNCC3)csc2n1)c1cnc2ccccc2n1 | < 0% | < 0% | < 0% | < 0% | < 0% | < 0% | 2.81% | < 0%
C#C[C@]1(O)CC[C@H]2[C@@H]3CCC4=CC(=O)CC[C@@H]4[C@H]3CC[C@@]21CC [Levonorgestrel] | < 0% | < 0% | < 0% | < 0% | < 0% | 6.75% | < 0% | < 0%
